{"source": "PubChem BioAssay AID1296", "about": "(Columbia University Molecular Screening Center, 2008)", "note": "Screen size: about 130,000 compounds; about 1,000 (0.77%) were called active. This list was built around the results that the source calls inconclusive (neither active nor inactive); the mix of calls is not that of the screen.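 Rule for the calls: active = activation at 2 µM above a set limit, confirmed on inspection of the cell images; inconclusive = above the set limit but not confirmed on image inspection; inactive = the rest.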", "data": [{"experiment": "activators of insulin promoter-driven GFP, primary screen, imaging, TRM-6 cells (human fetal islet line), eGFP reporter, cell count (AID 1296;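 note: share of cells whose green reporter signal exceeds an intensity cutoff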)", "conditions": "at 2 µM, active compounds read high, plate-scaled: unstimulated 0, stimulated control 100", "summary_of_the_method": "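Assay system: TRM-6 human fetal islet cells, insulin promoter–eGFP reporter; Also added: 0.75 µM tamoxifen as reporter inducer; Schedule: 15 h tamoxifen pre-treatment, 48 h compound treatment at 37 °C; Signal: fixed-cell fluorescence microscopy, eGFP plus Hoechst; Read-out: percent activation from GFP-positive cell fraction; Control set: stimulated and unstimulated wells.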", "values": [{"smiles": "Cc1cc(C(F)F)nn1CC(=O)Nc1cc([N+](=O)[O-])ccc1F", "activation": "inactive: 7.69%"}, {"smiles": "C=C(C)CC1(NC(C)c2ccccc2)CCCCC1", "note": "(centres undefined)", "activation": "inactive: 6.67%"}, {"smiles": "COc1cccc(NC(=O)C2C3C=CC4(O3)C2C(=O)N(C2CC2)C4C(=O)NC2CCCCC2C)c1", "note": "(centres undefined)", "activation": "active: 810%"}, {"smiles": "Nc1nnc(Cc2ccc(Cl)cc2Cl)s1", "activation": "active: 97.1%"}, {"smiles": "O=C(CN1CCN(S(=O)(=O)c2ccc(Br)cc2)CC1)Nc1ccc(F)cc1F", "activation": "active: 136%"}, {"smiles": "CC(=O)C1=C(C)NC(C)=C(C(C)=O)C1c1cccs1", "activation": "inactive: 7.69%"}, {"smiles": "O=[N+]([O-])c1ccc(N/N=C/c2c[nH]c3ccccc23)cc1", "activation": "active: 223%"}, {"smiles": "Cc1cc(C(F)(F)F)nn1Cc1n[nH]c(=S)n1-c1ccc(F)cc1", "activation": "inactive: -7.94%"}, {"smiles": "CCC(=O)Nc1cc(C(=O)OC(C(=O)c2ccc(C)c(C)c2)c2ccccc2)ccc1C", "note": "(centres undefined)", "activation": "inactive: -5.71%"}, {"smiles": "O=C(N/N=C/c1ccccn1)C1CC1", "activation": "inconclusive: 134%"}, {"smiles": "COc1nc(C)nc2c1ccc1ccccc12", "activation": "inconclusive: 510%"}, {"smiles": "Cc1cccc(-c2c3c(=O)n(C)c(=O)n(C)c3cn2C2CCCCC2)c1", "activation": "inactive: 5.71%"}, {"smiles": "CCOc1ccccc1Nc1ncccc1C(=O)O", "activation": "inactive: 1.82%"}, {"smiles": "Oc1ccc(Cl)cc1-c1cc(-c2ccccc2Cl)[nH]n1", "activation": "inconclusive: 450%"}, {"smiles": "O=C(NC(c1ccc(Cl)cc1)c1cc(Cl)c2cccnc2c1O)c1cccnc1", "note": "(centres undefined)", "activation": "inconclusive: 347% [cytotoxic]"}, {"smiles": "Cc1ccc(C)c(NC(=O)C2CC(Cl)=CCC2C(=O)O)c1", "note": "(centres undefined)", "activation": "inconclusive: 507%"}, {"smiles": "COc1ccccc1N1CCN(S(=O)(=O)CC23CCC(CC2=O)C3(C)C)CC1", "note": "(centres undefined)", "activation": "inactive: 0%"}, {"smiles": "Cc1cccnc1Nc1nc(-c2ccc(O)cc2)cs1", "activation": "inconclusive: 90.6%"}, {"smiles": "CC(C(=O)Nc1ccc(S(=O)(=O)N2CCOCC2)cc1)N1CCN(c2ccccn2)CC1", "note": "(centres undefined)", "activation": "inactive: 0%"}, {"smiles": "Cc1ccc(NC(=S)N/N=C/c2ccc([N+](=O)[O-])s2)cc1", "activation": "inconclusive: 293%"}, {"smiles": "COc1ccc(S(=O)(=O)N2c3ccccc3OCC2C)cc1", "note": "(centres undefined)", "activation": "inconclusive: 246% [cytotoxic]"}, {"smiles": "O=C(N/N=C/C1=C(N2CCOCC2)C(=C\\c2ccccc2)/CC1)Nc1ccccc1", "activation": "inactive: 6.45%"}, {"smiles": "N#C/C(=C/c1ccc(N2CCCCC2)o1)C(=O)Nc1ccc(Cl)cc1", "activation": "active: 270%"}, {"smiles": "Cc1cc(Cl)cc(Cl)c1OCCOc1cccc2cccnc12", "activation": "active: 83.9%"}, {"smiles": "COc1ccccc1N1CCN(CC(=O)Nc2ccc(Cl)c(C(F)(F)F)c2)CC1", "activation": "inactive: 9.3%"}, {"smiles": "Nc1ccc(C(=O)OCc2csc(-c3ccccc3)n2)cc1[N+](=O)[O-]", "activation": "inactive: 3.33%"}, {"smiles": "CC(=O)N(c1ccc(Cl)cc1)c1cn(C(C)=O)c2ccccc12", "activation": "inconclusive: 426%"}, {"smiles": "CCC(C)NC(=O)c1cc(C)no1", "note": "(centres undefined)", "activation": "active: 121%"}, {"smiles": "COc1ccc(NS(=O)(=O)c2cc(NC(=O)c3cccc(OCc4c(C)noc4C)c3)ccc2OC)cc1", "activation": "inactive: 0%"}, {"smiles": "NS(=O)(=O)c1cccc(NC(=O)COC(=O)CN2C(=O)C3CC=CCC3C2=O)c1", "note": "(centres undefined)", "activation": "inconclusive: 400%"}, {"smiles": "COc1ccccc1C/C(N)=N/OC(=O)c1cccc([N+](=O)[O-])c1C", "activation": "inactive: 6.67%"}, {"smiles": "COc1cccc(COc2nc3c(c(=O)n(C)c(=O)n3C)n2C)c1", "activation": "inconclusive: 554%"}, {"smiles": "CCOc1ccc(OCC)c(NS(=O)(=O)c2ccc3c(c2)CCN3C(=O)C2CCC2)c1", "activation": "inconclusive: 471%"}, {"smiles": "CCOC(=O)Cn1c(=O)sc2ccccc21", "activation": "inactive: 0%"}, {"smiles": "COCCCn1cc(C(=O)c2cc(OC)ccc2OCC(=O)N2CCCCC2C)cc(C#N)c1=O", "note": "(centres undefined)", "activation": "inactive: 5.56%"}, {"smiles": "COc1ccc(Cl)cc1NC(=O)c1cccc(NC(=O)CCC(=O)O)c1", "activation": "inactive: 0%"}, {"smiles": "CC(C)(C)OC(=O)N1CCN(c2ccc(NC(=O)Cn3nnc(-c4ccccc4)n3)cc2)CC1", "activation": "inconclusive: 420%"}, {"smiles": "COc1ccc(NC2=C(C(C)=O)C(c3ccc(N(C)C)cc3)C(C(C)=O)C(C)(O)C2)cc1", "note": "(centres undefined)", "activation": "inconclusive: 106%"}, {"smiles": "CC1(C)C2CCC1(CS(=O)(=O)Nc1ccc(S(=O)(=O)N3CCCC3)cc1)C(=O)C2", "note": "(centres undefined)", "activation": "inactive: 2.7%"}, {"smiles": "CCCCC(=O)Nc1ccc(C(=O)Nc2ccc3c(c2)OCO3)cc1", "activation": "active: 475%"}, {"smiles": "Cc1nnc(Cl)c2nn(-c3ccccc3)c(C)c12", "activation": "inconclusive: 233%"}, {"smiles": "CCc1ccc(NC(=O)c2cccnc2)cc1", "activation": "inconclusive: 750%"}, {"smiles": "CN(CC(=O)NC1CCCC1)S(=O)(=O)c1cnc[nH]1", "activation": "inactive: -7.14%"}, {"smiles": "O=C(Nc1cc2c(cc1Cl)OCCCO2)c1ccccc1", "activation": "inactive: -3.57%"}, {"smiles": "Cn1c(COc2ccccc2)nnc1SCc1nc2ccccc2[nH]1", "activation": "inactive: -2.63%"}, {"smiles": "Cc1c(N(C(=O)c2cnccn2)C2(C(=O)NC3CCCC3)CCCCC2)c(=O)n(-c2ccccc2)n1C", "activation": "inactive: 6.67%"}, {"smiles": "COc1ccccc1NC(=O)c1ccccc1-c1nc(-c2ccccc2OC)no1", "activation": "active: 400%"}, {"smiles": "O=C(O)c1ccc(N2C(=O)CC(Cc3ccccc3)C2=O)cc1", "note": "(centres undefined)", "activation": "inconclusive: 444%"}, {"smiles": "CC(=C1C(=O)c2ccccc2C1=O)N1CCC(C(N)=O)(N2CCCCC2)CC1", "activation": "inconclusive: 406%"}, {"smiles": "Cc1ccc(N(C(=O)c2csnn2)C(C(=O)NC(C)(C)C)c2ccccn2)cc1", "note": "(centres undefined)", "activation": "inconclusive: 335% [cytotoxic]"}, {"smiles": "Cc1cc(=O)n2nc(N3CCC(C(=O)N4CCN(Cc5ccccc5)CC4)CC3)sc2n1", "activation": "inconclusive: 431%"}, {"smiles": "N#CC1=C(N)SC(N)=C(C#N)C1c1cccc(O)c1", "activation": "inactive: 0%"}, {"smiles": "CCn1nnnc1SCC(=O)Nc1ccc(OC)cc1", "activation": "inconclusive: 462%"}, {"smiles": "Cc1cccc(NC(=O)CN2C(=O)N/C(=C/c3ccc(C)o3)C2=O)c1", "activation": "inactive: 9.68%"}, {"smiles": "Cc1ccc(CN(Cc2cc3cc4c(cc3[nH]c2=O)OCCO4)Cc2nnnn2Cc2ccco2)cc1", "activation": "inconclusive: 86.7%"}, {"smiles": "Cn1nc(-c2ccccc2)c2nc3ccccc3nc21", "activation": "active: 150%"}, {"smiles": "O=C1c2cccc3c([N+](=O)[O-])ccc(c23)C(=O)N1CC1CCCO1", "note": "(centres undefined)", "activation": "inconclusive: 493%"}, {"smiles": "Cc1c(O)c(=O)ccn1Cc1ccccc1", "activation": "active: 257%"}, {"smiles": "O=C(NNC(=O)C1CC1c1ccccc1)c1cccc([N+](=O)[O-])c1", "note": "(centres undefined)", "activation": "inactive: 0%"}]}]}
